Changes are numbered by the printed parent chain. These are yes or no findings as the source states them, for the method shown. Some entries that bind do so weakly or less than the wild type.
B1: H3_W99H_VL-par (antibody, V domains shown)
VH: QVQLVESGGGVVQPGRSLRLSCAASGFTFSDYGMHWVRQAPGKGLEWVAYISSGGTTIYYADTVKGRFTISRDNSKNTLYLQMNSLRAEDTAVYYCARHTNLYAMDYWGQGTTVTVSS
VL: DIVLTQSPDSLAVSLGERATINCRASKSVSTSGYSYMHWYQQKPGQPPKFLIYLASNLESGVPDRFSGSGSGTDFTLTISSLQAEDVAVYYCQHSREVPYTFGGGTKVEIKR
B2: H3_M105P_L2 (antibody, V domains shown)
VH: B1 VH with H99W, M105P
VL: B1 VL with L58K
B3: H2_Y60K_L2 (antibody, V domains shown)
VH: B1 VH with Y60K, H99W
VL: B1 VL with L58K
B4: H2_T63Y_VL-par (antibody, V domains shown)
VH: B1 VH with T63Y, H99W
VL: B1 VL

Biological target: huZIP12-ECD-GST (human) (UniProt Q504Y0)
Test: HTRF competition with Tb-labelled 51B12-parent for hZIP12-ECD-GST, dose response

For B1, which binding is on record?
The binding was “binds”.

With B2 as the binder, how does the binding read?
The binding was “binds”.

For B3, which binding is on record?
The binding was “binds”.

Which binding does the source give for B4 here?
The binding was “binds”.

Biological target: huZIP12-ECD-GST (human) (UniProt Q504Y0)
Test: HTRF competition: unlabelled antibody against Tb-labelled 51B12-parent on hZIP12-ECD-GST, detected with anti-GST-XL665

Which binding does the source give for B1 here?
The binding was “binds”.

Which binding does the source give for B2 here?
The binding was “binds”.

How did the binding turn out when B3 was run?
Its binding is “binds”.

For B4, which binding is on record?
Its binding is “binds”.
